Holding throughout (test): co-IP
One test has as its target T1, Flag-IRF3 (UniProt Q14653).
T1 sequence: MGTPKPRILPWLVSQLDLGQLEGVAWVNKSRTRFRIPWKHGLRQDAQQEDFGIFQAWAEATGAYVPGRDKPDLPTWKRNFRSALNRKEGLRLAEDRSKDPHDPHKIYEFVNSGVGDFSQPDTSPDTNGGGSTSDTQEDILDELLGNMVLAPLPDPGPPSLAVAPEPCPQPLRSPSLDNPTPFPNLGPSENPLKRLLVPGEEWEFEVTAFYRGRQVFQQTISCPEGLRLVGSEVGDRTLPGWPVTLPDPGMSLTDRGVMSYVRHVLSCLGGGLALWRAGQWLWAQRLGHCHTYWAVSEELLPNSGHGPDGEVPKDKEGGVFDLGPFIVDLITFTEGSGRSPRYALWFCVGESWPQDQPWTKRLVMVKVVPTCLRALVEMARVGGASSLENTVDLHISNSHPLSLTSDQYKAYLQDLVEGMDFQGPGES

Sequences of proteins named here, by UniProt entry; tags and fusion partners are left off. A change or cut given only in a name is not applied to a line headed by its entry.
UniProt Q86WV6: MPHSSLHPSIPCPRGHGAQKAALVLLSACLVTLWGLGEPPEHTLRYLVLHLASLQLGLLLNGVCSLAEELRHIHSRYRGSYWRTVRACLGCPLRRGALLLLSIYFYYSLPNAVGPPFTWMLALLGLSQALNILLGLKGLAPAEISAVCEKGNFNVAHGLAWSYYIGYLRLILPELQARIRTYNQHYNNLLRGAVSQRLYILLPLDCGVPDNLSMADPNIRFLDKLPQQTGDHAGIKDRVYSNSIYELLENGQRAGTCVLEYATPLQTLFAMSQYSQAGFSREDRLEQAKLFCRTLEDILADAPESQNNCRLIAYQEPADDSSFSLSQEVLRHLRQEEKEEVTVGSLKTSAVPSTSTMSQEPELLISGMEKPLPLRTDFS
UniProt Q7Z434: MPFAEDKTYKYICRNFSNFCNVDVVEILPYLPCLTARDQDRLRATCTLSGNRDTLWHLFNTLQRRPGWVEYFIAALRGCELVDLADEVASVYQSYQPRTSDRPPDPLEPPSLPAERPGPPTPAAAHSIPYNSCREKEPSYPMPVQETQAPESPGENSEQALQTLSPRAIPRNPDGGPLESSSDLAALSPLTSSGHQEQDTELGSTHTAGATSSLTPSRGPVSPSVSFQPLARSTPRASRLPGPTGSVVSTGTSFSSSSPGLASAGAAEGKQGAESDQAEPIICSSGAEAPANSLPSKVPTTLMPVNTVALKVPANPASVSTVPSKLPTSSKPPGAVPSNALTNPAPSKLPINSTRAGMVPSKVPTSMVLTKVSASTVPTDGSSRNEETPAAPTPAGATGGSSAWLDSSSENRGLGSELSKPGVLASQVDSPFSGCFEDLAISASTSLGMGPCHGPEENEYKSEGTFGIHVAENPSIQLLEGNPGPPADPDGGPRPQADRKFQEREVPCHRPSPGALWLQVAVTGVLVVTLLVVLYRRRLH
UniProt P07355: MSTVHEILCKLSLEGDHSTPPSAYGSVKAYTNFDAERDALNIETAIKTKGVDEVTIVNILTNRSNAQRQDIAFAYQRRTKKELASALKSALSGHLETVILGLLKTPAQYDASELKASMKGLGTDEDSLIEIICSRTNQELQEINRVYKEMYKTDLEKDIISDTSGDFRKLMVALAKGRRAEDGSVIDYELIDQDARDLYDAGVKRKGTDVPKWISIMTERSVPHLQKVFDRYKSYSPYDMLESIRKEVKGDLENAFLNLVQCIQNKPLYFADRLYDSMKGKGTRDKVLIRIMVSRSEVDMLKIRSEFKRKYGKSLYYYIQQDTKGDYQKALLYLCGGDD

A further test deals with Flag-STING (UniProt Q86WV6).
Test [1] concerns the target T2, Flag-IRF3-D5 (201-427 aa) (UniProt Q14653).
T2 sequence: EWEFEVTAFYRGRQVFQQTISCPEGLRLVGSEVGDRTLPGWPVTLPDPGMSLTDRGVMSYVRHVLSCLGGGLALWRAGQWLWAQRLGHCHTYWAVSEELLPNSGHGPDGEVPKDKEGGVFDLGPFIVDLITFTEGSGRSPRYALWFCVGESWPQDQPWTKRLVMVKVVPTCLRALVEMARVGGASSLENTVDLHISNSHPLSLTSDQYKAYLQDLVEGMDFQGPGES

A further test has as its target Flag-MAVS (UniProt Q7Z434).
The target in another test is T3, Flag-IRF3-D1 (1-382 aa) (UniProt Q14653).
T3 sequence: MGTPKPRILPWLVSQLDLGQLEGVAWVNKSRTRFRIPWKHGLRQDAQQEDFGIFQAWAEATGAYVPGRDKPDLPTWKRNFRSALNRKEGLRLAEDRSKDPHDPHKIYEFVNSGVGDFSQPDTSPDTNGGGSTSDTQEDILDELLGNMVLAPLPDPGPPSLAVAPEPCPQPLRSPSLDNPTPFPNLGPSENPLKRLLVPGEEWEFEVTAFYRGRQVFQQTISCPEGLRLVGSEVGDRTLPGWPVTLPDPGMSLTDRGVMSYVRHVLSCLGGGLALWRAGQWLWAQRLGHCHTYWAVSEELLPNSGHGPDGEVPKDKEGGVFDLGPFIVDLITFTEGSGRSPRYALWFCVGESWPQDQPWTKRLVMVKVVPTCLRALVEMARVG

Test [2] addresses T4, Flag-IRF3-D4 (141-427 aa) (UniProt Q14653).
T4 sequence: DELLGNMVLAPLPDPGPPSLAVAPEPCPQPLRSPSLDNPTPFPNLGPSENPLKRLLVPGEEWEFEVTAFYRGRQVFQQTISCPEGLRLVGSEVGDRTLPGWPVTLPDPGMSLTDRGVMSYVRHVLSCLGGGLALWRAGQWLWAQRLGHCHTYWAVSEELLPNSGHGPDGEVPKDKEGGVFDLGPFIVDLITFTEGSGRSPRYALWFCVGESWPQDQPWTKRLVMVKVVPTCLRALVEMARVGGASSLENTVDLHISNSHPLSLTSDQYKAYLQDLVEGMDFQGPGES

A further test has as its target T5, Flag-MDA5 (UniProt Q9BYX4).
T5 sequence: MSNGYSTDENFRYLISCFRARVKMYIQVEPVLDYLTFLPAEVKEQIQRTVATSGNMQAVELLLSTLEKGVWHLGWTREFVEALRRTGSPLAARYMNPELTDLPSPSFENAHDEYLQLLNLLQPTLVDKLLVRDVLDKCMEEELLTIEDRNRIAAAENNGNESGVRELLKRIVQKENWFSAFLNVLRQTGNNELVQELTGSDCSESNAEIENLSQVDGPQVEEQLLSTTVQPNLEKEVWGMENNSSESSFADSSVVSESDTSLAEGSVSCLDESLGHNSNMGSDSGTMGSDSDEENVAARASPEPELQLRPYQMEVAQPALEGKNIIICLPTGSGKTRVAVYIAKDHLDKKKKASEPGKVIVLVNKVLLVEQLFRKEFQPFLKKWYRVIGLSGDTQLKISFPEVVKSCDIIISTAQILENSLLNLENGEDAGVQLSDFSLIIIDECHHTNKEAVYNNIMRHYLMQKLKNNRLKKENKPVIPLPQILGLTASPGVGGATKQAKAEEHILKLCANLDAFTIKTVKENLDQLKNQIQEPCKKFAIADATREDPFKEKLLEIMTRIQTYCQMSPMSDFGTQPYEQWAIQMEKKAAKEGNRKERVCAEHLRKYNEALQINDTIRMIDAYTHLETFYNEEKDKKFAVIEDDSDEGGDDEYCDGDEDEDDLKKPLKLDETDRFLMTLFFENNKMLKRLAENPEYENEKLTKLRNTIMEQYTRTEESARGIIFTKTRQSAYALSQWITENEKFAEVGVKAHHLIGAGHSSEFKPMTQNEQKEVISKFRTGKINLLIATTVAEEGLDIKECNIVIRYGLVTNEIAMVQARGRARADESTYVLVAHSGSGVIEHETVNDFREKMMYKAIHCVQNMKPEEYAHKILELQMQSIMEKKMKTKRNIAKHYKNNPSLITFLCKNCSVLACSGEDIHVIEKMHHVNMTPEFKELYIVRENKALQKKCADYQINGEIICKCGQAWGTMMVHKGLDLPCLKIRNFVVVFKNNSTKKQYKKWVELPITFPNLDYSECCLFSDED

In a further test the target is T6, Flag-IRF3-D2 (1-357 aa) (UniProt Q14653).
T6 sequence: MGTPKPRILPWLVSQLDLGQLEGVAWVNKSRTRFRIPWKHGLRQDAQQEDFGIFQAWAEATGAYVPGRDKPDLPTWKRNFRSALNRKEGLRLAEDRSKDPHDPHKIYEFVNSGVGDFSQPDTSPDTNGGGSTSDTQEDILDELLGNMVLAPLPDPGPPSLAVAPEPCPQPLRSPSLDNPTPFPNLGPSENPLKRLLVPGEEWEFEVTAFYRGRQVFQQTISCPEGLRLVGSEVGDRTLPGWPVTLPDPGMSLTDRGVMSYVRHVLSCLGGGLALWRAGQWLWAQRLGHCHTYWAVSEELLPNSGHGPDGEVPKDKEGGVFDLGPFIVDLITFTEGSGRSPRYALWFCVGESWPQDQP

Another test addresses T7, Flag-IRF3-D3 (1-140 aa) (UniProt Q14653).
T7 sequence: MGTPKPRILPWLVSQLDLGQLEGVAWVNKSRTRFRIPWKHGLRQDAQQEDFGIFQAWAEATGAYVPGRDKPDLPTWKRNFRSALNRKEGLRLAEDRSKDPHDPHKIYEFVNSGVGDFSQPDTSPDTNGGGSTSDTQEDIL

Results are given in words; binding and its absence hold for the method and conditions named. Binding seen in cells or lysates may run through a third protein. Some binding calls cover weakened binding; strength is not graded here. For part of these data: Sequences can lack the tags named with a protein.

For the substance “HA-ANXA2-D1 (1-102 aa) (from UniProt P07355 1-102) (domain or fragment)”, the binding result with Flag-IRF3 is on record as “no binding”.
Take “HA-ANXA2-D2 (1-174 aa) (from UniProt P07355 1-174) (domain or fragment)”: the binding result in the test with Flag-IRF3 is on record as “binds”.
On the same count and under the same terms, the value for “HA-ANXA2-D3 (1-259 aa) (from UniProt P07355 1-259) (domain or fragment)” was “binds”.
In the case of “HA-ANXA2-D4 (50-340 aa) (from UniProt P07355 50-339) (domain or fragment)”, the binding result in the test with Flag-IRF3 is listed as “binds”.
As to “HA-ANXA2-D5 (122-340 aa) (from UniProt P07355 122-339) (domain or fragment)”, the binding result in the test with Flag-IRF3 is “binds”.
Regarding “HA-ANXA2-D6 (207-340 aa) (from UniProt P07355 207-339) (domain or fragment)”, the binding result with Flag-IRF3 is given as “binds”.
For “HA-tagged Annexin A2 (HA-ANXA2) (from UniProt P07355 1-339)”, the binding result is “binds” in the test with Flag-STING; “no binding” in test [1]; “binds” with Flag-IRF3; “binds” with Flag-MAVS; “binds” with Flag-IRF3-D1 (1-382 aa); “binds” in test [2]. The binding entry is “binds” with Flag-MDA5, “binds” in the test with Flag-IRF3-D2 (1-357 aa) and “no binding” with Flag-IRF3-D3 (1-140 aa).

The values are drawn from article doi:10.1101/2021.12.01.470696.
